These results are taken from publication doi:10.1101/2024.09.20.612365, “Preventing Inappropriate Signals Pre- and Post-Ligand Perception by a Toggle-Switch Mechanism of ERECTA” (bioRxiv, 2024).

Results are given in words; binding and its absence hold for the method and conditions named. For some of these results: In cells and extracts the contact can be indirect. Some binding calls cover weakened binding; strength is not graded here. Where a sequence is shown, tags or fusion partners need not be part of it.

In one assay the target is T1, PUB31-MYC (Arabidopsis) (UniProt Q9FHN9).
T1 sequence: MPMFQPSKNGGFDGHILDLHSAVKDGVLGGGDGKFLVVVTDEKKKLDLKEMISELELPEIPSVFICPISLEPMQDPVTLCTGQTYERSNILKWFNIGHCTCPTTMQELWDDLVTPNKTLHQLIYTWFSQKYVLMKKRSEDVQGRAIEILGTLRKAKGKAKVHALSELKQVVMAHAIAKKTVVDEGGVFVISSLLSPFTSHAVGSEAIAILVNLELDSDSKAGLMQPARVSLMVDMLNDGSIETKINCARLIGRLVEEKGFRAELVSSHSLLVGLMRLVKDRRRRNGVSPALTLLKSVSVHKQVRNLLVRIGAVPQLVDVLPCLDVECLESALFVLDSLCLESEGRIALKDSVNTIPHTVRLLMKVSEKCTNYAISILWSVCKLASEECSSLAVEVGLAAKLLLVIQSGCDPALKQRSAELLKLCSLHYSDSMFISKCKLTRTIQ
Put plainly: co-IP; Arabidopsis protoplasts co-expressing ER-HA variants and PUB31-MYC (Fig. S7B); legend not shown.

Assay [1] has as its target T2, PUB31 (as used in Fig. S7A) (Arabidopsis) (UniProt Q9FHN9).
T2 sequence: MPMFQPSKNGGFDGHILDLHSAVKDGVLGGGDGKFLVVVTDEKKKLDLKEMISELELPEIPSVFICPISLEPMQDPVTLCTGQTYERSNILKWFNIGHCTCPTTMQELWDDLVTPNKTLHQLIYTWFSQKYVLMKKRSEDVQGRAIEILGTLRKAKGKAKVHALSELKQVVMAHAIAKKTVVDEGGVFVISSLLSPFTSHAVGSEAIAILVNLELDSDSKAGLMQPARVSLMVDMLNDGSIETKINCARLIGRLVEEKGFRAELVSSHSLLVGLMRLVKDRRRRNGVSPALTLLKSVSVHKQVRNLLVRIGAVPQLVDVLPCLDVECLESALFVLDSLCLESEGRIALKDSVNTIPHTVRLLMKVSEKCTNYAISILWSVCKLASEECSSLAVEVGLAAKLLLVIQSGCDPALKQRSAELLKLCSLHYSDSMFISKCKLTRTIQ
As to the kind of experiment: BLI; PUB31 with ER_CD and its C-terminal deletion version (Fig. S7A); legend and methods not shown, method taken from the paragraph on the BLI assays. Background: In BLI a coated tip is dipped into the sample, and binding shifts an interference pattern.

Another assay deals with T3, ER-FLAG (Arabidopsis) (UniProt Q42371).
T3 sequence: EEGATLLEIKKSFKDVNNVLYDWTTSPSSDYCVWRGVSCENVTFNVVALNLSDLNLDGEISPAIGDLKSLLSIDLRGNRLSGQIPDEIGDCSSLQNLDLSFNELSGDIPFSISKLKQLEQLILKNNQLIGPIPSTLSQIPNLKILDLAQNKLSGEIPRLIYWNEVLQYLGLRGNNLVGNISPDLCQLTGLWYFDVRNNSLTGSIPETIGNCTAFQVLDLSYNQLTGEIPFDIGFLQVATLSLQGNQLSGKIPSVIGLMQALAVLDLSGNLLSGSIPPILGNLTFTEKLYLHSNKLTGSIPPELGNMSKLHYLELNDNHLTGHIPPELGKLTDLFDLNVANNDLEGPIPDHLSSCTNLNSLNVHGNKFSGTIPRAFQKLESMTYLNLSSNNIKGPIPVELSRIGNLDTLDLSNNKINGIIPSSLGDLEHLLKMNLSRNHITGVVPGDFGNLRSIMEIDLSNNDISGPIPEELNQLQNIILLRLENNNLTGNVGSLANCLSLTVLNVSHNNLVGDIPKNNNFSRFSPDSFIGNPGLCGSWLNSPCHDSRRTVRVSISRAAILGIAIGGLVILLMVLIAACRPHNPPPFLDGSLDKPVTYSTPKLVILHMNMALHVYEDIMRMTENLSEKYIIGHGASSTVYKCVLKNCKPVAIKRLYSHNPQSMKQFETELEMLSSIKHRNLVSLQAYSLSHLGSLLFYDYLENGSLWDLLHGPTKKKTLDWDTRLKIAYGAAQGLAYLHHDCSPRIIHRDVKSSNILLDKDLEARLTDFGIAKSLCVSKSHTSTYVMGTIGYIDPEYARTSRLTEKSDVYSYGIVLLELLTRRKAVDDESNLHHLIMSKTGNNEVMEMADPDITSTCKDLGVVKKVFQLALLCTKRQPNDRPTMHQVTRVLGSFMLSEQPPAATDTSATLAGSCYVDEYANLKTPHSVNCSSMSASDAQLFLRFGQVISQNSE
As to the kind of experiment: co-IP; proteins from double transgenic Arabidopsis lines (ERpro::BKI1-YFP with ERpro::ER-FLAG variants) immunoprecipitated with anti-FLAG beads, blots with anti-FLAG and anti-GFP; also seedlings treated with MEPF2 peptide (association decreased, Fig. S6).

The target in assay [2] is T4, ER_(T/S8A)-FLAG, phosphonull version (Arabidopsis) (UniProt Q42371).
T4 sequence: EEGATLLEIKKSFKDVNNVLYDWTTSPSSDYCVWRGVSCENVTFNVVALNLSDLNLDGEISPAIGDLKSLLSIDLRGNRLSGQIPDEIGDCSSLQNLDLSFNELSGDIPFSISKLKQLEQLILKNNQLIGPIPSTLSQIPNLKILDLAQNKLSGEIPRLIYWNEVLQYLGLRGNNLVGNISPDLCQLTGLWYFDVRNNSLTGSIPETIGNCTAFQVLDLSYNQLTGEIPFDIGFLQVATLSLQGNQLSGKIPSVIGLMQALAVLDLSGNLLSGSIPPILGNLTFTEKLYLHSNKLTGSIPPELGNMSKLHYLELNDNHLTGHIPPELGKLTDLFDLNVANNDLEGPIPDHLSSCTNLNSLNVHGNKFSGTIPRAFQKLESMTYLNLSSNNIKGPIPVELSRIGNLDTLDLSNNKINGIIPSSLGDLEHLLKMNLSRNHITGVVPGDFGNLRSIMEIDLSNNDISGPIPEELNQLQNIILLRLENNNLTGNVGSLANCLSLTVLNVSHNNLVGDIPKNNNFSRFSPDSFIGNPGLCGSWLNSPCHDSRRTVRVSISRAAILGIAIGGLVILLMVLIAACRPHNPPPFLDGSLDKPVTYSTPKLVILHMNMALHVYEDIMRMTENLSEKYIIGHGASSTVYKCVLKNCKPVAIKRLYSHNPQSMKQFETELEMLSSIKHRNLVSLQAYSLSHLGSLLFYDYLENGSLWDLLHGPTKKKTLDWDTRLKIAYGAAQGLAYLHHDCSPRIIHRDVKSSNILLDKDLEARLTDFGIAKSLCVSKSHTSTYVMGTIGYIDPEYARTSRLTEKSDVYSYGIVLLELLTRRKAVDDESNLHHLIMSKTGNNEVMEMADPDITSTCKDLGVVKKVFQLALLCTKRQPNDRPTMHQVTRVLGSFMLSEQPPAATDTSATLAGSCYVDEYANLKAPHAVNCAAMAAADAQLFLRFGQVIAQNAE
Described as above.

B1: ER-HA (receptor, UniProt Q42371 25-976)
chain: EEGATLLEIKKSFKDVNNVLYDWTTSPSSDYCVWRGVSCENVTFNVVALNLSDLNLDGEISPAIGDLKSLLSIDLRGNRLSGQIPDEIGDCSSLQNLDLSFNELSGDIPFSISKLKQLEQLILKNNQLIGPIPSTLSQIPNLKILDLAQNKLSGEIPRLIYWNEVLQYLGLRGNNLVGNISPDLCQLTGLWYFDVRNNSLTGSIPETIGNCTAFQVLDLSYNQLTGEIPFDIGFLQVATLSLQGNQLSGKIPSVIGLMQALAVLDLSGNLLSGSIPPILGNLTFTEKLYLHSNKLTGSIPPELGNMSKLHYLELNDNHLTGHIPPELGKLTDLFDLNVANNDLEGPIPDHLSSCTNLNSLNVHGNKFSGTIPRAFQKLESMTYLNLSSNNIKGPIPVELSRIGNLDTLDLSNNKINGIIPSSLGDLEHLLKMNLSRNHITGVVPGDFGNLRSIMEIDLSNNDISGPIPEELNQLQNIILLRLENNNLTGNVGSLANCLSLTVLNVSHNNLVGDIPKNNNFSRFSPDSFIGNPGLCGSWLNSPCHDSRRTVRVSISRAAILGIAIGGLVILLMVLIAACRPHNPPPFLDGSLDKPVTYSTPKLVILHMNMALHVYEDIMRMTENLSEKYIIGHGASSTVYKCVLKNCKPVAIKRLYSHNPQSMKQFETELEMLSSIKHRNLVSLQAYSLSHLGSLLFYDYLENGSLWDLLHGPTKKKTLDWDTRLKIAYGAAQGLAYLHHDCSPRIIHRDVKSSNILLDKDLEARLTDFGIAKSLCVSKSHTSTYVMGTIGYIDPEYARTSRLTEKSDVYSYGIVLLELLTRRKAVDDESNLHHLIMSKTGNNEVMEMADPDITSTCKDLGVVKKVFQLALLCTKRQPNDRPTMHQVTRVLGSFMLSEQPPAATDTSATLAGSCYVDEYANLKTPHSVNCSSMSASDAQLFLRFGQVISQNSE
Turning to B1, in the assay with PUB31-MYC (Arabidopsis), the binding result was “binds”.

B2: MBP-fused full-length ER cytoplasmic domain (MBP-ER_CD) (domain or fragment, Arabidopsis, UniProt Q42371 602-976, looked up)
chain: CRPHNPPPFLDGSLDKPVTYSTPKLVILHMNMALHVYEDIMRMTENLSEKYIIGHGASSTVYKCVLKNCKPVAIKRLYSHNPQSMKQFETELEMLSSIKHRNLVSLQAYSLSHLGSLLFYDYLENGSLWDLLHGPTKKKTLDWDTRLKIAYGAAQGLAYLHHDCSPRIIHRDVKSSNILLDKDLEARLTDFGIAKSLCVSKSHTSTYVMGTIGYIDPEYARTSRLTEKSDVYSYGIVLLELLTRRKAVDDESNLHHLIMSKTGNNEVMEMADPDITSTCKDLGVVKKVFQLALLCTKRQPNDRPTMHQVTRVLGSFMLSEQPPAATDTSATLAGSCYVDEYANLKTPHSVNCSSMSASDAQLFLRFGQVISQNSE
notes: ERECTA (ER) LRR receptor kinase, Arabidopsis; full-length cytoplasmic domain (juxtamembrane domain, kinase domain, C-terminal tail); source: expressed and purified (recombinantly purified)
Regarding B2, the binding result in assay [1] is reported as “binds”.

B3: GST-BKI1 (BRI1 KINASE INHIBITOR 1) (natural protein, Arabidopsis, UniProt Q9FMZ0 1-337, looked up)
chain: METNLQQVKNSSQTFSEKQNPKQEASPSPISSTCSSPSHDFSFTISLQPLSSSSKHISPTLRSPSKTTSSYQQTDPFAVDLSPADEIFFHGHLLPLHLLSHLPVSPRTSTGSYNDGFTLPVKDILPDQPTNNNNNTENAITNISTEAKDDNTEDKAEGEIRVKTKPIKSFSLFGLSKWRKGFESNEREQEQQQQKIKKPMSLDLSHAVKKYIRMLFQKRGNGTQFWNRRQTSSYSFSSSLMGPNGNSKTMINGSYNKRDLIRGRRGELFSAPASMRTSPTNSGHLRVSTAGLSSSSGSTSSSSSDSTMEELQAAIQAAIAHCKNSSAVDRDDKVKDS
notes: source: recombinantly purified
Take B3: the binding result (in the assay with ER-FLAG (Arabidopsis); in assay [2]) was “binds” each time.
